{"source": "patent US7138489", "about": "(dated 2006)", "key": {"[1]": {"test": "general procedure: hybrid (solid and solution phase) peptide synthesis; prolyl-2-chlorotrityl resin; HBTU; HOOBt/DCC; HBTU/DIPEA for fragment condensation", "conditions": "whole synthesis"}, "[2]": {"test": "general procedure: hybrid (solid and solution phase) peptide synthesis; prolyl-2-chlorotrityl resin (Novabiochem); HBTU; HOOBt/DCC; HBTU/DIPEA for fragment condensation", "conditions": "whole synthesis; for crude HPLC purity / crude yield: scale of the general procedure 1.0 mmol, 0.25 mmol"}}, "data": [{"substance": "Boc-Gly-Ser(tBu)-Ser(Octanoyl)-Phe-Leu-Ser(tBu)-Pro-OH", "values": [{"measurement": "crude mass", "setting": "[1]; scale 0.25 mmol", "result": 248, "unit": "mg"}, {"measurement": "crude yield", "setting": "[1]; scale 1.0 mmol", "result": "yield 72%"}, {"measurement": "crude mass", "setting": "[1]; scale 1.0 mmol, run 1", "result": 742, "unit": "mg"}, {"measurement": "crude mass", "setting": "[1]; scale 1.0 mmol, run 2", "result": 715, "unit": "mg"}, {"measurement": "isolated mass", "setting": "[2]", "result": 210, "unit": "mg"}, {"measurement": "crude HPLC purity", "setting": "[2]; run 1", "result": 94, "unit": "%"}, {"measurement": "crude HPLC purity", "setting": "[2]; run 2", "result": 74, "unit": "%"}, {"measurement": "crude yield", "setting": "[2]; run 1", "result": "yield 69%"}, {"measurement": "crude yield", "setting": "[2]; run 2", "result": "yield 96%"}]}, {"substance": "Boc-Gly-Ser(tBu)-Ser-Phe-Leu-Ser(tBu)-Pro-OH", "values": [{"measurement": "crude mass", "setting": "[1]; scale 0.25 mmol", "result": 165, "unit": "mg"}]}, {"substance": "GSS (n-octanoyl) FLSPEHQRVQQRKESKKPPAKLQPR (Ser3 n-octanoyl; N-terminal GSS)", "values": [{"measurement": "final HPLC purity", "setting": "peptide synthesis; coupling step", "result": 98, "unit": "%"}, {"measurement": "crude HPLC purity", "setting": "peptide synthesis; coupling step, run 1", "result": 80, "unit": "%"}, {"measurement": "crude HPLC purity", "setting": "peptide synthesis; coupling step, run 2", "result": 83, "unit": "%"}, {"measurement": "step yield", "setting": "peptide synthesis; purification step", "result": "recovery rate 73%"}]}]}
